# Experimental data: PubChem BioAssay AID1259308 (NCATS, 2017)
# Purpose: 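Knock-downs that increase output of a recombinant reporter protein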 (primary screen)
# System: human HEK293 embryonic kidney cells stably expressing firefly luciferase (HEK-CMV-Luc2-Hygro)
# Reagents: single siRNA against human genes, 0.8 pmol siRNA per well
# Timing: 72 h
# Detection: 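Luciferase light (ONE-Glo) measured on one replicate plate set and viability (CellTiter-Glo) on the other, scaled to a negative control siRNA, with robust z-scores and luciferase per cell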
# Reading the numbers: total luciferase, z-score and total luciferase, % of control: higher = more reporter protein produced; luciferase per cell, z-score: higher = more reporter output per viable cell; viable cells, % of control: higher = more viable cells
# Rule for the call: 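Active when the median/MAD z-score for overall luciferase is greater than 3; a gene was taken forward for validation with new siRNAs if at least two of its three siRNAs passed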
# Meaning of the calls: active = raised luciferase; inactive = no rise
# The whole screen tested about 59,000 reagents; below is an unselected part. About 1,510 of all reagents (2.6%) were called active. 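Calls use total luciferase alone and ignore viability, so some active siRNAs may act by altering cell number.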 Entries without a mark were called inactive. Reagents against one gene are numbered here.
Target gene,siRNA no.,"total luciferase, z-score","total luciferase, % of control","luciferase per cell, z-score","viable cells, % of control"
VSTM1 (V-set and transmembrane domain containing 1),1,1.21,106,1.17,87
VSTM1 (V-set and transmembrane domain containing 1),2,0.401,89.9,0.395,90.5
VSTM1 (V-set and transmembrane domain containing 1),3,-1.48,52.5,-1.23,81.1
ACBD6 (acyl-CoA binding domain containing 6),1,-1.18,58.3,-0.998,84.8
ACBD6 (acyl-CoA binding domain containing 6),2,0.407,90,-0.154,105
ACBD6 (acyl-CoA binding domain containing 6),3,-0.755,66.9,-0.626,88.1
DRC2 (dynein regulatory complex subunit 2),1,-0.274,76.4,-0.0454,86.4
DRC2 (dynein regulatory complex subunit 2),2,-0.201,77.9,-0.753,106
DRC2 (dynein regulatory complex subunit 2),3,-0.938,63.2,-0.546,81.6
TM9SF4 (transmembrane 9 superfamily member 4),1,0.0643,83.2,0.123,90
TM9SF4 (transmembrane 9 superfamily member 4),2,1.58,113,1.12,94.2
TM9SF4 (transmembrane 9 superfamily member 4),3,0.272,87.3,0.166,93.4
CDH19 (cadherin 19),1,2.45,131,1.56,96.7
CDH19 (cadherin 19),2,0.781,97.4,0.543,94.4
CDH19 (cadherin 19),3,0.0158,82.2,-0.327,100
ZNF554 (zinc finger protein 554),1,0.23,86.5,-0.294,104
ZNF554 (zinc finger protein 554),2,0.53,92.4,0.747,84.8
ZNF554 (zinc finger protein 554),3,0.271,87.3,0.0657,95.8
ZSCAN5A (zinc finger and SCAN domain containing 5A),1,1.37,109,2.7,59.9
ZSCAN5A (zinc finger and SCAN domain containing 5A),2,1.04,103,0.787,93.1
ZSCAN5A (zinc finger and SCAN domain containing 5A),3,0.68,95.4,0.262,99.5
BARX2 (BARX homeobox 2),1,-0.873,64.5,-0.789,88.7
BARX2 (BARX homeobox 2),2,-0.309,75.7,-1,110
BARX2 (BARX homeobox 2),3,0.529,92.4,-0.305,112
MIR7-3HG (MIR7-3 host gene),1,-0.276,76.4,1.17,62.8
MIR7-3HG (MIR7-3 host gene),2,-0.413,73.7,-0.201,86.8
MIR7-3HG (MIR7-3 host gene),3,0.238,86.6,0.0109,96.5
A2M (alpha-2-macroglobulin),1,-0.739,67.2,-0.378,82.9
A2M (alpha-2-macroglobulin),2,-0.429,73.3,-0.9,104
A2M (alpha-2-macroglobulin),3,1.36,109,1.16,89.7
SRD5A1 (steroid 5 alpha-reductase 1),1,0.367,89.2,-0.244,106
SRD5A1 (steroid 5 alpha-reductase 1),2,-0.191,78.1,-0.66,104
SRD5A1 (steroid 5 alpha-reductase 1),3,2.35,129,1.37,100
COX6C (cytochrome c oxidase subunit 6C),1,-0.0226,81.4,-0.55,105
COX6C (cytochrome c oxidase subunit 6C),2,1.13,104,1.25,83.8
COX6C (cytochrome c oxidase subunit 6C),3,-0.17,78.5,-0.328,95.7
FMNL1-DT (FMNL1 divergent transcript),1,-0.0265,81.4,0.733,75
FMNL1-DT (FMNL1 divergent transcript),2,0.249,86.8,0.469,85.8
FMNL1-DT (FMNL1 divergent transcript),3,1.15,105,3.03,52.7
SPOCK3,1,-1,61.9,-0.42,77.3
SPOCK3,2,-1.6,50.1,-1.23,77.5
SPOCK3,3,-0.338,75.2,-0.449,94.5
LILRA5 (leukocyte immunoglobulin like receptor A5),1,-0.697,68,0.44,67.7
LILRA5 (leukocyte immunoglobulin like receptor A5),2,-0.219,77.5,1.06,65.5
LILRA5 (leukocyte immunoglobulin like receptor A5),3,0.262,87.1,0.99,75
"PRAMENP (PRAME N-terminal like, pseudogene)",1,0.0212,82.3,-0.12,94.9
"PRAMENP (PRAME N-terminal like, pseudogene)",2,-0.15,78.9,-0.133,91.3
"PRAMENP (PRAME N-terminal like, pseudogene)",3,0.877,99.3,1.71,70.8
SFRP1 (secreted frizzled related protein 1),1,-0.5,71.9,-0.103,82.6
SFRP1 (secreted frizzled related protein 1),2,-0.182,78.3,-0.126,90.4
SFRP1 (secreted frizzled related protein 1),3,0,81.9,-0.339,100
TMBIM1 (transmembrane BAX inhibitor motif containing 1),1,-1.92,43.7,-1.86,79.8
TMBIM1 (transmembrane BAX inhibitor motif containing 1),2,0.51,92,0.933,80.4
TMBIM1 (transmembrane BAX inhibitor motif containing 1),3,1.09,104,1.38,80.5
"METTL5 (methyltransferase 5, N6-adenosine)",1,-1.36,54.8,-1.26,85.3
"METTL5 (methyltransferase 5, N6-adenosine)",2,0.0533,82.9,0.389,83.7
"METTL5 (methyltransferase 5, N6-adenosine)",3,0.0759,83.4,0.264,86.9
